PubChem BioAssay AID652259 | Drosophila RNAi Screening Center, 2013
The screen tested about 22,000 reagents; shown is an unselected part of those with a known target gene and a result. In the full data, 233 (1.1%) got an active call. 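Light values are raw, unnormalised plate reads; the ratio scores behind the reporter calls were not deposited.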 Not stated in the record: the amount of reagent, the time to read-out, the dose of the treatment.

Test: 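Genome-wide hunt for genes that control Wingless pathway activity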 (primary screen)
System: Drosophila clone 8 imaginal disc epithelial cells
Knock-down reagent: long dsRNA against Drosophila genes
Treatment: pathway stimulated by co-transfected Wingless expression plasmid
Read-out: 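Dual luciferase reads per well after Wingless plasmid stimulation: reporter firefly light and Renilla control light; activity is firefly divided by Renilla, a ratio not deposited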
Scale: firefly reporter light: higher = more Wg reporter light, before normalisation; Renilla control light: higher = more transfected or surviving cells
Active means: 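a knock-down is a candidate when at least two out of four statistical tests show it departing from its plate mean; one test alone signals a weak candidate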
Meaning of the calls: active = candidate regulator (raises or lowers reporter); inactive = not a candidate

| Target gene | dsRNA | firefly reporter light, replicate 1 | firefly reporter light, replicate 2 | Renilla control light, replicate 1 | Renilla control light, replicate 2 | Call |
| --- | --- | --- | --- | --- | --- | --- |
| Tes | DRSC06996 | 5485 | – | 2420 | – | inactive |
| Tom40 | DRSC18796 | 15492 | – | 7849 | – | inactive |
| sna | DRSC03613 | 3329 | 6375 | 972 | 2598 | inactive |
| Elovl7 | DRSC15452 | 18848 | – | 4544 | – | inactive |
| Elovl7 | DRSC21570 | 2.05e5 | 2.66e5 | 1.95e5 | 1.50e5 | inactive |
| CG13510 | DRSC04152 | 3532 | 8528 | 819 | 3523 | inactive |
| Cdc37 | DRSC08648 | 5613 | – | 2128 | – | inactive |
| clumsy | DRSC03111 | 3112 | 6368 | 1090 | 2570 | inactive |
| HPS1 | DRSC06195 | 11335 | – | 4828 | – | inactive |
| CG15629 | DRSC00464 | 2656 | 5949 | 1056 | 2209 | inactive |
| CG14384 | DRSC14842 | 14800 | – | 2113 | – | inactive |
| Su(fu) | DRSC16871 | 8189 | – | 2353 | – | inactive |
| Duba | DRSC10582 | 5203 | – | 2085 | – | inactive |
| CG5039 | DRSC15703 | 23146 | – | 20298 | – | inactive |
| nes | DRSC11375 | 12330 | – | 3483 | – | inactive |
| l(2)k09848 | DRSC04894 | 14051 | – | 4394 | – | inactive |
| CG5662 | DRSC19957 | 4160 | – | 1321 | – | inactive |
| cora | DRSC07597 | 6848 | – | 1840 | – | inactive |
| Cdc14 | DRSC03013 | 2944 | 8401 | 848 | 3412 | inactive |
| CG3635 | DRSC03729 | 2796 | 5989 | 1051 | 2386 | inactive |
| RpS12 | DRSC11270 | 4404 | – | 3266 | – | inactive |
| Gdap1 | DRSC10437 | 1510 | 7161 | 961 | 2384 | inactive |
| CG31465 | DRSC16090 | 2521 | 8001 | 954 | 2868 | inactive |
| GNBP3 | DRSC11170 | 887 | 8218 | 915 | 2944 | inactive |
| Msp300 | DRSC00854 | 23180 | – | 10560 | – | inactive |
| Msp300 | DRSC00856 | 25046 | – | 10947 | – | inactive |
| Msp300 | DRSC00857 | 18473 | – | 12432 | – | inactive |
| Msp300 | DRSC00858 | 20500 | – | 9458 | – | inactive |
| Msp300 | DRSC02360 | 2052 | 4650 | 964 | 1816 | inactive |
| Msp300 | DRSC03369 | 7226 | – | 3322 | – | inactive |
| Msp300 | DRSC03370 | 2551 | 6060 | 1063 | 2924 | inactive |
| ubl | DRSC04998 | 3771 | 5110 | 315 | 2058 | inactive |
| CG14377 | DRSC14837 | 14209 | – | 3593 | – | inactive |
| TP53INP | DRSC08178 | 8306 | – | 2887 | – | inactive |
| TP53INP | DRSC22552 | 8.50e5 | 8.31e5 | 3.38e5 | 1.02e5 | inactive |
| WRNexo | DRSC16278 | 4786 | 6370 | 1591 | 2859 | inactive |
| dtr | DRSC01847 | 15792 | – | 8508 | – | inactive |
| cas | DRSC12373 | 17244 | – | 3829 | – | inactive |
| CG12984 | DRSC11693 | 10858 | – | 4881 | – | inactive |
| Ran-like | DRSC10918 | 5604 | – | 1840 | – | inactive |
| nub | DRSC01260 | 20784 | – | 11436 | – | inactive |
| nub | DRSC02498 | 2176 | 7648 | 860 | 2480 | inactive |
| nub | DRSC02499 | 3307 | 8208 | 1272 | 3104 | inactive |
| nub | DRSC03583 | 1637 | 4998 | 784 | 2034 | inactive |
| CG18586 | DRSC10325 | 1308 | 6904 | 1372 | 2595 | inactive |
| CG34236 | DRSC05435 | 20258 | – | 14160 | – | inactive |
| CG31323 | DRSC14901 | 23958 | – | 18109 | – | inactive |
| Jon25Biii | DRSC03115 | 2516 | 6160 | 1053 | 2358 | inactive |
| CG7974 | DRSC08607 | 17417 | – | 4114 | – | inactive |
| CG3603 | DRSC18317 | 13225 | – | 12176 | – | inactive |
| Set | DRSC16861 | 9057 | – | 2488 | – | inactive |
| CG2111 | DRSC18205 | 13300 | – | 7541 | – | inactive |
| E23 | DRSC00425 | 2040 | 4231 | 316 | 397 | inactive |
| E23 | DRSC00593 | 2500 | 4320 | 995 | 1329 | inactive |
| CG10809 | DRSC09802 | 8525 | – | 3106 | – | inactive |
| Osi24 | DRSC12275 | 14432 | – | 4000 | – | inactive |
| CG10053 | DRSC12502 | 7959 | – | 2966 | – | inactive |
| CG6865 | DRSC10732 | 7226 | – | 2482 | – | inactive |
| CG15465 | DRSC18048 | 22048 | – | 10092 | – | inactive |
| CG33459 | DRSC05615 | 13344 | – | 6487 | – | inactive |
| ari-2 | DRSC04672 | 2192 | 6625 | 684 | 2500 | inactive |
| ifc | DRSC03549 | 10624 | – | 3908 | – | inactive |
| CG32801 | DRSC17964 | 18781 | – | 13784 | – | inactive |
| CG32017 | DRSC17183 | 3846 | – | 1522 | – | inactive |
| CG7194 | DRSC10784 | 1530 | 5762 | 1184 | 2544 | inactive |
| CG42853 | DRSC09534 | 3483 | – | 1402 | – | inactive |
| CG31524 | DRSC22014 | 1.04e6 | 1.08e6 | 4.93e5 | 4.96e5 | inactive |
| dikar | DRSC09699 | 3152 | – | 851 | – | inactive |
| dikar | DRSC22261 | 7.48e5 | 7.96e5 | 1.94e5 | 2.16e5 | inactive |
| CG10208 | DRSC14211 | 20802 | – | 15291 | – | inactive |
| CG14644 | DRSC12230 | 13212 | – | 5818 | – | inactive |
| Cadps | DRSC21057 | 18336 | – | 10173 | – | inactive |
| Cadps | DRSC22200 | 4.30e5 | 5.31e5 | 1.91e5 | 2.27e5 | inactive |
